# The other results are listed elsewhere or left out.
# Chains of the proteins cited; added tags and fusions are not shown. Lines headed by an entry give the natural chain unless they say otherwise; changes in a name come on top.
# UniProt Q9UJF2: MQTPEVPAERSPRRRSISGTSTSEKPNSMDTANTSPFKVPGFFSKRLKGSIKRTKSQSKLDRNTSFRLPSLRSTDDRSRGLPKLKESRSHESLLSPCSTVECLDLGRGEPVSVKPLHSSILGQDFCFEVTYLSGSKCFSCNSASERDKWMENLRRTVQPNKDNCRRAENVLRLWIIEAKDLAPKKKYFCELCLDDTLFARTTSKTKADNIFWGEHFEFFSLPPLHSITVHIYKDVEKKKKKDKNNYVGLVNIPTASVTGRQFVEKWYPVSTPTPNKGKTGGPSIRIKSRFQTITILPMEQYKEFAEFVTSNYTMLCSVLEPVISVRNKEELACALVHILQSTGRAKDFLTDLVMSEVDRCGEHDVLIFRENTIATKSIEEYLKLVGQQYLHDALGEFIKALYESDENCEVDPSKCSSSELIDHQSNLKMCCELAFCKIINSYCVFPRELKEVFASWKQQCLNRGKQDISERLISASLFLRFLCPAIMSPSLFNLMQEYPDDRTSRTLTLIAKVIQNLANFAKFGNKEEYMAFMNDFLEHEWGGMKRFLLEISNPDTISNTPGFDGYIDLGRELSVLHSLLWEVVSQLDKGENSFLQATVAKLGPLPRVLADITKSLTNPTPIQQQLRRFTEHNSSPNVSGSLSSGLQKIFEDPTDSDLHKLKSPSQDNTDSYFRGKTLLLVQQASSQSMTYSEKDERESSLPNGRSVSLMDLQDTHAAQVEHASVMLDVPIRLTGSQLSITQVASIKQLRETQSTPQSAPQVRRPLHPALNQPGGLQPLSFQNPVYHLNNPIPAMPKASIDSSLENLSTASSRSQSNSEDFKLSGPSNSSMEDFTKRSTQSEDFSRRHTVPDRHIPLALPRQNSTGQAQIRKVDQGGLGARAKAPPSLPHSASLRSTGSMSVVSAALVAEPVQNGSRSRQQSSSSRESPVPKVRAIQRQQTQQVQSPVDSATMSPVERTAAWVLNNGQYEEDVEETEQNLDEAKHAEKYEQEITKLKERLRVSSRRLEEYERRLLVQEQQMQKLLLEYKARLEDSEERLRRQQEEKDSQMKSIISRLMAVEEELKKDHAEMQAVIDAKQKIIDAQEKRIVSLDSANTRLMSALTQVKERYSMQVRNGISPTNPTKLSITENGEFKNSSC
# UniProt P29350: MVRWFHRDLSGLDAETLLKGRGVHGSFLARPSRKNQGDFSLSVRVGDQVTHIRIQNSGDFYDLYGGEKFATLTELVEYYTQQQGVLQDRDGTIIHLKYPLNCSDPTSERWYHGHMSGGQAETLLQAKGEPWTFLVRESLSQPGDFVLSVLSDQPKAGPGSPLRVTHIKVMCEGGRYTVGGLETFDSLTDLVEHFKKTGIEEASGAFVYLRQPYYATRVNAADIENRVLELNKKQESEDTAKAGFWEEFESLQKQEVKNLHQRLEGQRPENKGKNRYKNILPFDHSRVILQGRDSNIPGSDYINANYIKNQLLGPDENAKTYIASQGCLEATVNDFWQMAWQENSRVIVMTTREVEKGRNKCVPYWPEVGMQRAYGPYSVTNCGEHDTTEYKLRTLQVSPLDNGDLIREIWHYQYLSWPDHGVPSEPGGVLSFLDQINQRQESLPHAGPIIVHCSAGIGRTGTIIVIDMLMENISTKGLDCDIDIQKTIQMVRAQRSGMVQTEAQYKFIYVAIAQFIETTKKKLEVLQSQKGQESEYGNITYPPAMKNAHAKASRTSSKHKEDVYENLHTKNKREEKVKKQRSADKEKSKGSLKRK
# UniProt P15151: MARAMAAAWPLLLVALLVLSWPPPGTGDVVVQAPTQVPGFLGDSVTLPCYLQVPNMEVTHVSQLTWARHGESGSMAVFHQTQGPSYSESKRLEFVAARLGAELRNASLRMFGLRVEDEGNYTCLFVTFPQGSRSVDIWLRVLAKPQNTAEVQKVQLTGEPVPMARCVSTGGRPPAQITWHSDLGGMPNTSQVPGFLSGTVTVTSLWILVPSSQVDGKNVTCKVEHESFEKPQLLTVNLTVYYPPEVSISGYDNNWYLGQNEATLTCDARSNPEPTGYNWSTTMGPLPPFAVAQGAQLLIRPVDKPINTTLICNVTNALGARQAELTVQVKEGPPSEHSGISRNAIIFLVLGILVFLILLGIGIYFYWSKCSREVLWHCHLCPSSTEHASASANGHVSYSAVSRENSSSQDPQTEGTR
# UniProt Q12974: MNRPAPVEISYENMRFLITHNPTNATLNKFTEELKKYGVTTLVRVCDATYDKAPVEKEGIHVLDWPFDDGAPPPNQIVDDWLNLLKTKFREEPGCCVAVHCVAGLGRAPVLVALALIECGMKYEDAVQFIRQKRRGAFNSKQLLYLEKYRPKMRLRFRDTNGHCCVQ
# UniProt P20339: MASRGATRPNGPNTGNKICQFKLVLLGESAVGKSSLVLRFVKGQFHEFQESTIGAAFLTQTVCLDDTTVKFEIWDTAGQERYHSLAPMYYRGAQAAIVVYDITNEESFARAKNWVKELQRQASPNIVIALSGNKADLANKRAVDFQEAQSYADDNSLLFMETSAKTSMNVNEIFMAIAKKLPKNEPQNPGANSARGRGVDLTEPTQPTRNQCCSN
# UniProt Q92930: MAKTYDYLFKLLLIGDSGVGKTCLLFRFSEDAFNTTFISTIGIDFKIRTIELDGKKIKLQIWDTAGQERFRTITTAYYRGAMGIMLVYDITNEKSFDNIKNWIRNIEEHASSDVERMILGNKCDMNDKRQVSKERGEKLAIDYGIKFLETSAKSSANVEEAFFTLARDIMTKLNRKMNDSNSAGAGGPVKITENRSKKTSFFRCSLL
# UniProt P43487, whole entry: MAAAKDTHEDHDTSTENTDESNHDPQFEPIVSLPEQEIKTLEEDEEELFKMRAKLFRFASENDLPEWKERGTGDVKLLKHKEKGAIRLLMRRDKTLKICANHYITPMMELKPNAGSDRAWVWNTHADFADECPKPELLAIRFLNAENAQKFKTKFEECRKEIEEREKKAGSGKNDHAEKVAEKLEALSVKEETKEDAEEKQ
# UniProt P61225: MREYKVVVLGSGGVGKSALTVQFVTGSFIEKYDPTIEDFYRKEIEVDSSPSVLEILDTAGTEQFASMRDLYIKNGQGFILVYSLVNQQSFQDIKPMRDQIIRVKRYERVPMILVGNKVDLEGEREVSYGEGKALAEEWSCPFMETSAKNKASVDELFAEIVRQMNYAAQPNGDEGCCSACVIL
# UniProt Q53H96: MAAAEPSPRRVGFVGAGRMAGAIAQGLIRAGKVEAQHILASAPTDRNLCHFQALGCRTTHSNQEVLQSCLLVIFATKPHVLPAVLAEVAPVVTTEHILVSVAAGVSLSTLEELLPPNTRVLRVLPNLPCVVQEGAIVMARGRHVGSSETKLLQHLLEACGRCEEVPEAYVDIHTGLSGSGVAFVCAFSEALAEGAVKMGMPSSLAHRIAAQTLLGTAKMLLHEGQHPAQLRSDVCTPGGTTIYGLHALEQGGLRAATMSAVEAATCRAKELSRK
# UniProt P60900, whole entry: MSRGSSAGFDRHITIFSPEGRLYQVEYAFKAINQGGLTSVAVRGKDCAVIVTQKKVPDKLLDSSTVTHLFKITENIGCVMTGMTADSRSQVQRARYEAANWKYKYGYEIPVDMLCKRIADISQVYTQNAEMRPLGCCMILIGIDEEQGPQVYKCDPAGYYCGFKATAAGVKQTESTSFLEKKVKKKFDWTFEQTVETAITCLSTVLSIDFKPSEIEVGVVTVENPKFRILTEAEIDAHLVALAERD
# UniProt P98179: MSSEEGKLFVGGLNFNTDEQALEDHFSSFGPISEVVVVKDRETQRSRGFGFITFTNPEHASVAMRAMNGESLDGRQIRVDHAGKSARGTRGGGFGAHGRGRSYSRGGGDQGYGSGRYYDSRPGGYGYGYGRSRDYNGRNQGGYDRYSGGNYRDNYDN
# UniProt Q7Z6K3: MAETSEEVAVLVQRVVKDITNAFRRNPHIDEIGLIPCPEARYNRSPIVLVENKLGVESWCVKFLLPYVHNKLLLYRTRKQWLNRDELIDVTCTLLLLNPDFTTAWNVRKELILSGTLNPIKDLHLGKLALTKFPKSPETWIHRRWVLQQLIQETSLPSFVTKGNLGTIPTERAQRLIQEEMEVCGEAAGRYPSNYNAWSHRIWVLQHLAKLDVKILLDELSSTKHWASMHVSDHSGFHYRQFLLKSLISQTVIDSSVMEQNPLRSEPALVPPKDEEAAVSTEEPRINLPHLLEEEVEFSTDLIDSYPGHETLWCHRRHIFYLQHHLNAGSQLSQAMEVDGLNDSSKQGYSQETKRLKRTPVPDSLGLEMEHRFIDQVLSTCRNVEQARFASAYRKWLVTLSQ
# UniProt P53801: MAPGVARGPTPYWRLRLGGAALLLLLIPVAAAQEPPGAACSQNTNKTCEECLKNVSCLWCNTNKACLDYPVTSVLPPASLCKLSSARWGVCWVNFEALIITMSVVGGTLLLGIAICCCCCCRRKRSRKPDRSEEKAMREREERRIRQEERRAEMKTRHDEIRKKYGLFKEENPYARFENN
# UniProt Q96B01: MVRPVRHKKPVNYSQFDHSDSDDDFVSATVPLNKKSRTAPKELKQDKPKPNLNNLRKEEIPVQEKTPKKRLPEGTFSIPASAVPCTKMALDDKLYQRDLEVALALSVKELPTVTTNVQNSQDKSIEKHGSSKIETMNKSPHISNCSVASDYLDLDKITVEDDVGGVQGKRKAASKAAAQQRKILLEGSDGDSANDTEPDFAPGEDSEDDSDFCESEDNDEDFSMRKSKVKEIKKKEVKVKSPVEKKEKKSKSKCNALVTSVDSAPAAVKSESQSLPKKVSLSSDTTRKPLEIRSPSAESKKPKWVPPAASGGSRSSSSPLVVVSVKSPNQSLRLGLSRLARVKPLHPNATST
# UniProt Q6Y1H2: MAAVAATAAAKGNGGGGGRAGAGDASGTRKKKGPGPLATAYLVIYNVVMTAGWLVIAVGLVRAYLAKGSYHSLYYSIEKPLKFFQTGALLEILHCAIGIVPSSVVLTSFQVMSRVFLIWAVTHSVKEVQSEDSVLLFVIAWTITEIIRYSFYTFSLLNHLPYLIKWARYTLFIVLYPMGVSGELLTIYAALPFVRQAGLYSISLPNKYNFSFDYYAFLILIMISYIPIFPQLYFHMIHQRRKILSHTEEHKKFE
# UniProt Q9P2W1: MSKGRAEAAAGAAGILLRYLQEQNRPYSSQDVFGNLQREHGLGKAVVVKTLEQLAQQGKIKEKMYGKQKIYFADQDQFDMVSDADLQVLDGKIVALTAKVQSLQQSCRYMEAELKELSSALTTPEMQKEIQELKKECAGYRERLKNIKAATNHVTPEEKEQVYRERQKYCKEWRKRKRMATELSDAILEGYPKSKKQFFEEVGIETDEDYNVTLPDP
# UniProt P23469: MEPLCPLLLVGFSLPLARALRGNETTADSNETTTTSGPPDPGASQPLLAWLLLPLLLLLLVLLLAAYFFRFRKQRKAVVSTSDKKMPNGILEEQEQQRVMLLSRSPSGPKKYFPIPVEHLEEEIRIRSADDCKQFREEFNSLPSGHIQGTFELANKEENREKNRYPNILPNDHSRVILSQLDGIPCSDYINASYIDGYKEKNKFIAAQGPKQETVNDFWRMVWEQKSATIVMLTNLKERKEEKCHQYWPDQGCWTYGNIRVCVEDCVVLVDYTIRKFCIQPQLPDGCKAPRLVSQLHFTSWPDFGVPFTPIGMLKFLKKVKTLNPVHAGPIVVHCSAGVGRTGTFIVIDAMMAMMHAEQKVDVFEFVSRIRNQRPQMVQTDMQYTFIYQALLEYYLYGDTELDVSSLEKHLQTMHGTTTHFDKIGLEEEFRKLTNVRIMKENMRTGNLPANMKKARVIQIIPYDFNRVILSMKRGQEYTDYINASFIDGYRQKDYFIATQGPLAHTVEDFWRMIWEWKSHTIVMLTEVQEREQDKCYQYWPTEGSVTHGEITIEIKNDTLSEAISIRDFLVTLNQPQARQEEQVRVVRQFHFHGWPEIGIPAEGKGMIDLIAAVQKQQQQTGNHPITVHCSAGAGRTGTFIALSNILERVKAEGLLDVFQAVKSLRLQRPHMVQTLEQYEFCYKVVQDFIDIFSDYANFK
# UniProt Q9HCJ3: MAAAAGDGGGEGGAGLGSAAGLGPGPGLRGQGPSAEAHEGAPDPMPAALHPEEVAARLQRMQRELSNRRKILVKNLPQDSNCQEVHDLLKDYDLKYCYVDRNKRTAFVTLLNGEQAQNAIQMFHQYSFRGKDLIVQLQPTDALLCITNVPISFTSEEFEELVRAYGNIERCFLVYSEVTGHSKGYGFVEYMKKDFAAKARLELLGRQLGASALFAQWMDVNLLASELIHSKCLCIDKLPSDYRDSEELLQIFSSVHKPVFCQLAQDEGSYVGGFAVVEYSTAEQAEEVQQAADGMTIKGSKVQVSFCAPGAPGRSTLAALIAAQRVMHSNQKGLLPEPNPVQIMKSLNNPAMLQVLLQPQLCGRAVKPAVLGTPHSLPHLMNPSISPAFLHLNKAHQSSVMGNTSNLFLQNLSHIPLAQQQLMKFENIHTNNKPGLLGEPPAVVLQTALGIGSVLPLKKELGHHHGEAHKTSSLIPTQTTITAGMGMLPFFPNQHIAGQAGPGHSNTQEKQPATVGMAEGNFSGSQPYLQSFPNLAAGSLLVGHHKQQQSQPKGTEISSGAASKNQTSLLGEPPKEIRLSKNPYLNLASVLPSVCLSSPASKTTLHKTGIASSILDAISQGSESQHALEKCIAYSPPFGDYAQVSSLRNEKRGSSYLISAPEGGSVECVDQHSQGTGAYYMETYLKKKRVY
# Compound: COc1ccc(Cn2ccc3ccc(C(=O)NO)cc32)cc1
# Assay: dose-dependent thermal stabilisation call (2D-TPP, DLPTP, 10% FDR) (binary (1 = stabilised)); higher = stabilised by the compound
# Conditions: system: HL-60 intact cells; concentration range 0.04-10 µM
row,Target,dose-dependent thermal stabilisation call
1,RAPGEF1 (UniProt Q13905),inactive: 0
2,RASAL2 (UniProt Q9UJF2),inactive: 0
3,RBM4B (UniProt Q9BQ04),inactive: 0
4,PYCR2 (UniProt Q96C36),inactive: 0
5,PSMG1 (UniProt O95456),inactive: 0
6,PTPN22 (UniProt Q9Y2R2),inactive: 0
7,PTPN6 (UniProt P29350),inactive: 0
8,PVR (UniProt P15151),inactive: 0
9,RBBP6 (UniProt Q7Z6E9),inactive: 0
10,PTP4A2 (UniProt Q12974),inactive: 0
11,RAB5A (UniProt P20339),inactive: 0
12,RAB8B (UniProt Q92930),inactive: 0
13,PUM2 (UniProt Q8TB72),inactive: 0
14,RANBP1 (UniProt P43487),inactive: 0
15,RAP2B (UniProt P61225),inactive: 0
16,PYCRL (UniProt Q53H96),inactive: 0
17,RAD1 (UniProt O60671),inactive: 0
18,PRRC1 (UniProt Q96M27),inactive: 0
19,PTPRCAP (UniProt Q14761),inactive: 0

row,Target,dose-dependent thermal stabilisation call
1,PSMA6 (UniProt P60900),inactive: 0
2,RBM3 (UniProt P98179),inactive: 0
3,PTAR1 (UniProt Q7Z6K3),inactive: 0
4,PSMF1 (UniProt Q92530),inactive: 0
5,RAB3IP (UniProt Q96QF0),inactive: 0
6,PSME2 (UniProt Q9UL46),inactive: 0
7,PTTG1IP (UniProt P53801),inactive: 0
8,RASAL3 (UniProt Q86YV0),inactive: 0
9,RAD51AP1 (UniProt Q96B01),inactive: 0
10,RALB (UniProt P11234),inactive: 0
11,PRPF6 (UniProt O94906),inactive: 0
12,PTPLB (UniProt Q6Y1H2),inactive: 0
13,PRPF19 (UniProt Q9UMS4),inactive: 0
14,PSMC3IP (UniProt Q9P2W1),inactive: 0
15,PTPN1 (UniProt P18031),inactive: 0
16,RAD54B (UniProt Q9Y620),inactive: 0
17,PTPRE (UniProt P23469),inactive: 0
18,RAVER2 (UniProt Q9HCJ3),inactive: 0

# Looked up above.
# Entry for RAD54B (UniProt Q9Y620) under dose-dependent thermal stabilisation call: inactive: 0
# Entry for PTTG1IP (UniProt P53801) under dose-dependent thermal stabilisation call: inactive: 0
# Entry for PTAR1 (UniProt Q7Z6K3) under dose-dependent thermal stabilisation call: inactive: 0

# Source: the supplement of paper PMC7666118
